# The supplement of paper PMC12819154, “High-throughput peptide-centric local stability assay extends protein–ligand identification to membrane proteins, tissues and bacteria” (Nature Structural & Molecular Biology, 2025)
# Protein sequences, listed by entry. Tags and fused reporters are not part of them. Lines headed by an entry give the natural chain unless they say otherwise; changes in a name come on top.
# UniProt Q6PH81: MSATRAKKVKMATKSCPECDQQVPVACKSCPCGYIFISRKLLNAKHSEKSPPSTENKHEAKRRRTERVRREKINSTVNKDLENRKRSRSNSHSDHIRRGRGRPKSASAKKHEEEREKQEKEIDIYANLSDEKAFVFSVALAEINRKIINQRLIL
# UniProt Q6RFH5: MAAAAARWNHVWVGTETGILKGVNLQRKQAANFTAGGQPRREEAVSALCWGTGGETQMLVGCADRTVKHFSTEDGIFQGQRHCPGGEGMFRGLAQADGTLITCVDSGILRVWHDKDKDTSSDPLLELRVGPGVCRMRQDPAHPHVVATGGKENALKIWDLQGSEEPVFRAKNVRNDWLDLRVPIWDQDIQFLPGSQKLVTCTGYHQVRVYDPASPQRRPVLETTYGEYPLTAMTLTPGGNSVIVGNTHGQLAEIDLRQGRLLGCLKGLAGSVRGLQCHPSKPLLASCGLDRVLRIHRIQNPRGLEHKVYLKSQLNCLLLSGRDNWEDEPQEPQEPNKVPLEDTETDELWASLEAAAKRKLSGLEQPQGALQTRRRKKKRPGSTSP
# UniProt Q6Y7W6: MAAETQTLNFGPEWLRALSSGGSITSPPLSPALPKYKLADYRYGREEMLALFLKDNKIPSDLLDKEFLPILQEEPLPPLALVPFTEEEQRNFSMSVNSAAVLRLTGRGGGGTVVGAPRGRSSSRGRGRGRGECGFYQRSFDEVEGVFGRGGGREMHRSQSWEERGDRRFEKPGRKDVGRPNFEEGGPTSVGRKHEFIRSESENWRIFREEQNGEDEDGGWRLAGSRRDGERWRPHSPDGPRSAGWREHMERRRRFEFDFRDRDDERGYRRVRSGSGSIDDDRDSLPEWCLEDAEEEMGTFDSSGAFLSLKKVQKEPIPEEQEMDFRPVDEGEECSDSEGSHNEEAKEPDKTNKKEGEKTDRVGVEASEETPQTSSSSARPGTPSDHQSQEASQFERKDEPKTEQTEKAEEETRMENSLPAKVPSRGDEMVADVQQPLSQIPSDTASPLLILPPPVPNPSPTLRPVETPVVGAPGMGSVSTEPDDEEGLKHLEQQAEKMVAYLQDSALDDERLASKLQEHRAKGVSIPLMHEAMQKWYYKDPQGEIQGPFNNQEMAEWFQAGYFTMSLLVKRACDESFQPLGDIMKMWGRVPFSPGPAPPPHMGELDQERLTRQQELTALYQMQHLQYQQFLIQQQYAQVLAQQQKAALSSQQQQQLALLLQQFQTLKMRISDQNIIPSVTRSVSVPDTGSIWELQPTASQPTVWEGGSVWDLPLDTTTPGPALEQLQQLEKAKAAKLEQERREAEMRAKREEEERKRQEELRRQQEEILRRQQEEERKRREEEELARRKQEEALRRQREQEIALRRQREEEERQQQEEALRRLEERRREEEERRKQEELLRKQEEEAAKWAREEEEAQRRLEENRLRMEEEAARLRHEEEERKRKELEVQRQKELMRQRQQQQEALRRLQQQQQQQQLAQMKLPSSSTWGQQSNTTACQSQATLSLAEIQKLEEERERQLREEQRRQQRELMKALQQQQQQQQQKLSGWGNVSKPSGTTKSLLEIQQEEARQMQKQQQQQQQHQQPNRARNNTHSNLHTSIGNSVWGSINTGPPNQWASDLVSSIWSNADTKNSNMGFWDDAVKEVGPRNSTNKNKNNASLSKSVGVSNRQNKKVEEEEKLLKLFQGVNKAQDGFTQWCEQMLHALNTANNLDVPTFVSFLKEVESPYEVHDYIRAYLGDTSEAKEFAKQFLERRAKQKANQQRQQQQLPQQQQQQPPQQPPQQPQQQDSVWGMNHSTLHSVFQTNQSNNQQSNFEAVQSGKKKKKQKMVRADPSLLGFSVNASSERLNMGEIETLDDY
# UniProt Q6IEG0: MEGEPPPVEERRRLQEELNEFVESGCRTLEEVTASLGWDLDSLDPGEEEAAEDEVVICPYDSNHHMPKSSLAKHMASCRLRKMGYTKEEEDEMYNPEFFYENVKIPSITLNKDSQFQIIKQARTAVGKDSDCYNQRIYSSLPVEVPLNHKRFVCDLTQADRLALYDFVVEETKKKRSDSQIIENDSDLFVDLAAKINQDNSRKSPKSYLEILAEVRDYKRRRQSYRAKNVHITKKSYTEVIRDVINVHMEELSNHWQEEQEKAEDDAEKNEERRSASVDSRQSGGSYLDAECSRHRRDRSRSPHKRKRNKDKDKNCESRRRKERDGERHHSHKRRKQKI
# UniProt Q6P4R8, whole entry: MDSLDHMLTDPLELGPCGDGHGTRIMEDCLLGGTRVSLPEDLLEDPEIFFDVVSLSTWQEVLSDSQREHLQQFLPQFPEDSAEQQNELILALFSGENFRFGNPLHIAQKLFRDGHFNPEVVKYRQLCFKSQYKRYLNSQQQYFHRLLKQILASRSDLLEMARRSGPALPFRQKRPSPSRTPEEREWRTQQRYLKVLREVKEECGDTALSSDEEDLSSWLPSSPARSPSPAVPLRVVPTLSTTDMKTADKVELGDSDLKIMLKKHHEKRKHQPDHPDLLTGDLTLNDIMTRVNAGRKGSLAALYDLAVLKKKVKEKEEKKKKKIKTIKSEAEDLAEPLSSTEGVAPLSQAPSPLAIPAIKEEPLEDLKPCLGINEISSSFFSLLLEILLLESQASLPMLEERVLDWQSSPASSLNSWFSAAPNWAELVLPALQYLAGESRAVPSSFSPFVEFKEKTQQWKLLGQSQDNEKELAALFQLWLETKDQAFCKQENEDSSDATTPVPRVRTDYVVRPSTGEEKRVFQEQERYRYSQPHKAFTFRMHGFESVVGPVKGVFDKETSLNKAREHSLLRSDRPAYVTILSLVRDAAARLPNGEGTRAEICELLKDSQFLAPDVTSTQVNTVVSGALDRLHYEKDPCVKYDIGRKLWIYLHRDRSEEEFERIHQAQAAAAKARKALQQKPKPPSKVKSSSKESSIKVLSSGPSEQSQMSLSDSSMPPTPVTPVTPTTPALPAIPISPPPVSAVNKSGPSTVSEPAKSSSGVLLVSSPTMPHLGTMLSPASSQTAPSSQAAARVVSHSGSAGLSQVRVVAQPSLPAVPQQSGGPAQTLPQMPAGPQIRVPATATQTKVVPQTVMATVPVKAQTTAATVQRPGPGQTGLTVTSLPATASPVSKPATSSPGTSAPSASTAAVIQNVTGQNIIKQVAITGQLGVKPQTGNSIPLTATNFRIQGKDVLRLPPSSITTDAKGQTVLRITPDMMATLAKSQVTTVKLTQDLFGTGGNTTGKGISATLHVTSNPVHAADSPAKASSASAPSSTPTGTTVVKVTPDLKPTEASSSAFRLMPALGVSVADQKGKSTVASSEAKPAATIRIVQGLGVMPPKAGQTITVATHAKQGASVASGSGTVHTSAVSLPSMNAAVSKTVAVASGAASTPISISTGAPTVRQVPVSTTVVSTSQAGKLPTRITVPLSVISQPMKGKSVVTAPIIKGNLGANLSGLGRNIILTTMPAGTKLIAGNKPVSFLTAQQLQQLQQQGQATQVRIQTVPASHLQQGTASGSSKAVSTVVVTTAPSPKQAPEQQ
# UniProt Q6P1X5, whole entry: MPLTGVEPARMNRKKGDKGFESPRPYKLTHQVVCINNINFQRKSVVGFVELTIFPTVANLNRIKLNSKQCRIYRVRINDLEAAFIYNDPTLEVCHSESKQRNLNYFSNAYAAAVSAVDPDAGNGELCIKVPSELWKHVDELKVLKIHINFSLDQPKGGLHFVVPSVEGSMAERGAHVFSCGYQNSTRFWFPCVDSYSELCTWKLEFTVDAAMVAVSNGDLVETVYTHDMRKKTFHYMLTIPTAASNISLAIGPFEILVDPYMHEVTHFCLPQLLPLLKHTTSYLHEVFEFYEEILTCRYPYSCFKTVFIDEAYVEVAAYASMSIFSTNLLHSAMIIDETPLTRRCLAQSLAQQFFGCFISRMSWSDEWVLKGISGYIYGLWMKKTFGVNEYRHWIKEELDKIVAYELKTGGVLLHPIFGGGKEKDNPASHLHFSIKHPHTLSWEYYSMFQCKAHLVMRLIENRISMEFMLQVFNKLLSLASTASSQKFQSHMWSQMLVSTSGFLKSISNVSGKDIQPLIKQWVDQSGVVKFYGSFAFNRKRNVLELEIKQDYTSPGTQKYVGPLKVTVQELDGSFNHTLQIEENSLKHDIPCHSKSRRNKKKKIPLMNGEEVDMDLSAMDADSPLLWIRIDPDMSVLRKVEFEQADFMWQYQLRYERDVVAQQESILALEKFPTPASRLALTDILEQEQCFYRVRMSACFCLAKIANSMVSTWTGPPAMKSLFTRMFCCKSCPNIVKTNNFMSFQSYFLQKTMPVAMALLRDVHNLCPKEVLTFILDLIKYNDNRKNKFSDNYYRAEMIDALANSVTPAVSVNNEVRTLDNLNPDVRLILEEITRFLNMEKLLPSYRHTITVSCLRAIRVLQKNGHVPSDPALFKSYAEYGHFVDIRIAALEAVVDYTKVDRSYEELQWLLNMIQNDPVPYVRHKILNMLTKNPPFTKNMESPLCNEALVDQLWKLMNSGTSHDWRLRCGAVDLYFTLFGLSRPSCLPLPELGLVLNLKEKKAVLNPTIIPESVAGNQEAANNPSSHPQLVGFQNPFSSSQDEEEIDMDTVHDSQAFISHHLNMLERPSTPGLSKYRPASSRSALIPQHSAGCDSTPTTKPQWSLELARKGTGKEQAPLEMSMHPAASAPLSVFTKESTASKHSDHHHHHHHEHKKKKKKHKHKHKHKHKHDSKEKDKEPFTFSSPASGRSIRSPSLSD
# UniProt Q68D86: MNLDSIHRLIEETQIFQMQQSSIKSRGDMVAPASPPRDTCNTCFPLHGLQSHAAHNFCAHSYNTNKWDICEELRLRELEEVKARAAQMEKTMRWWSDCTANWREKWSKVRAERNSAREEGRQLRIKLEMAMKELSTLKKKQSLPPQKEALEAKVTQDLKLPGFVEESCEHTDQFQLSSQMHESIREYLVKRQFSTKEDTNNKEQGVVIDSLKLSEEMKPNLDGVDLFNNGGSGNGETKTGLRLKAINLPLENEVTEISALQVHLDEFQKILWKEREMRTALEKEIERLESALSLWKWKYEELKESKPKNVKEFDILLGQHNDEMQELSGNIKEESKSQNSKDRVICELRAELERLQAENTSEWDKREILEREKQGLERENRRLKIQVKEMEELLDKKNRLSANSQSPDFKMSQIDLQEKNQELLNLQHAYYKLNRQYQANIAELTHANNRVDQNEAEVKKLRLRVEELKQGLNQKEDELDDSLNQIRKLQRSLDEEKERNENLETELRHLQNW
# UniProt Q676U5: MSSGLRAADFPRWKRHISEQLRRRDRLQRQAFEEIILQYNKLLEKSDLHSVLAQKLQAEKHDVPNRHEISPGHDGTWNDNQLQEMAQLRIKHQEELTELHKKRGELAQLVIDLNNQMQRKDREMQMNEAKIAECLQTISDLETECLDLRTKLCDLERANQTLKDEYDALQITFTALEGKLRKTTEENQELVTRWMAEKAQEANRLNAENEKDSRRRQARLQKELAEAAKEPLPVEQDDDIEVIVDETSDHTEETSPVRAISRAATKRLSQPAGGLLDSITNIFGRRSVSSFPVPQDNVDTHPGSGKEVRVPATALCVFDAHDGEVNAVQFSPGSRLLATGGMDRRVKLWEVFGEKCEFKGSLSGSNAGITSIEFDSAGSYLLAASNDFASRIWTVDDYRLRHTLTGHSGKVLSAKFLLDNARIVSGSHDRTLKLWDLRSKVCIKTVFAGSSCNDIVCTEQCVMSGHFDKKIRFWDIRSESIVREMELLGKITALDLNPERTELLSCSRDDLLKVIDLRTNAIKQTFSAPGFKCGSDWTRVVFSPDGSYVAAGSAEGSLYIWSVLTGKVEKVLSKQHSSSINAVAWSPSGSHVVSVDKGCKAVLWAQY
# UniProt Q6PID6, whole entry: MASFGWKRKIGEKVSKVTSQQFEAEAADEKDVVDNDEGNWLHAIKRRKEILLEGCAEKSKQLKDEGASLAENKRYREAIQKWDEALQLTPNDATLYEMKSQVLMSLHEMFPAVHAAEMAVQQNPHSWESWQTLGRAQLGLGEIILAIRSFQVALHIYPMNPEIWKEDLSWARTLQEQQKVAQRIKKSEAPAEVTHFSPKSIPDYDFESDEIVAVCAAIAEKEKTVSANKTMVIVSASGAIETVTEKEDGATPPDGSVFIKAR
# This is one part of the list. Small differences around the control level are noise.
# Compound: CN[C@@H]1C[C@H]2O[C@@](C)([C@@H]1OC)n1c3ccccc3c3c4c(c5c6ccccc6n2c5c31)C(=O)NC4 [staurosporine]
# Assay: log2 fold change of tryptic peptide abundance, ligand vs vehicle (limited proteolysis) (log2 ratio); higher = more trypsin-susceptible (destabilized)
# Details: ligand concentration: 20 uM; sample: K562 cleared lysate; digestion: 4 min, 22 C (HT-PELSA RT4min, Orbitrap Astral)
row,Target,log2 fold change
1,"C16orf87 (peptide sequence: SPPSTENKHEAK, peptide start residue: 50) (UniProt Q6PH81)",0.285
2,"WDR74 (peptide sequence: QDPAHPHVVATGGKENALK, peptide start residue: 138) (UniProt Q6RFH5)",0.489
3,"GIGYF2 (peptide sequence: WRPHSPDGPR, peptide start residue: 232) (UniProt Q6Y7W6)",0.443
4,"SNRNP48 (peptide sequence: FVCDLTQADR, peptide start residue: 152) (UniProt Q6IEG0)",0.228
5,"NFRKB (peptide sequence: IVQGLGVMPPK, peptide start residue: 1090) (UniProt Q6P4R8)",0.342
6,"RFWD3 (peptide sequence: TFTVSQAGNCR, peptide start residue: 441) (UniProt Q6PCD5)",0.649
7,"TAF2 (peptide sequence: TLDNLNPDVR, peptide start residue: 818) (UniProt Q6P1X5)",0.357
8,"UniProt Q68D86 (peptide sequence: EILEREK, peptide start residue: 367)",0.0332
9,"ATG16L1 (peptide sequence: HQEELTELHKK, peptide start residue: 92) (UniProt Q676U5)",-0.468
10,"TTC33 (peptide sequence: QLKDEGASLAENKR, peptide start residue: 61) (UniProt Q6PID6)",0.182

# Looked up above.
# Entry of WDR74 (peptide sequence: QDPAHPHVVATGGKENALK, peptide start residue: 138) (UniProt Q6RFH5) under log2 fold change: 0.489
# Entry of SNRNP48 (peptide sequence: FVCDLTQADR, peptide start residue: 152) (UniProt Q6IEG0) under log2 fold change: 0.228
